{
  "source": "PubChem BioAssay AID1347076",
  "about": "(National Center for Advancing Translational Sciences (NCATS), 2019)",
  "note": "Among all 400,000 compounds or so, about 13,000 (3.2%) were called active. This list was built around the results that the source calls inconclusive (neither active nor inactive); the mix of calls is not that of the screen. Calls follow the shape of the dose curve; as a rule, active = well fitted cell-killing curve with a large enough effect; inconclusive = small, poorly fitted or top-dose-only effect, or effect the other way; inactive = flat fitted curve, though single readings scatter. Potencies of inconclusive entries are doubtful fits and often do not repeat. Potency is read from the fitted curve at half-maximal effect.",
  "data": [
    {"assay": "qHTS assay for MDR1-selective chemotherapeutics: Primary screen using the drug-selected MDR subline cells KB-V1; also: nearly all actives have a fitted effect of over 60% in size", "details": "KB-V1 MDR cells viability, CellTiter-Glo, 72 h; series mostly up to 46.1 µM", "method_in_brief": "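qHTS viability screen in drug-selected KB-V1 MDR cells: 72 h compound treatment at 37 degrees C, ATP luminescence end point.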", "values": [
      {"smiles": "NC(=O)C1CCN(C(=O)c2ccc(NS(=O)(=O)c3ccc(F)cc3)cc2)CC1", "Potency": "inconclusive: 29.1 µM [rising, single point]"},
      {"smiles": "COc1ccc(C)cc1-n1nnnc1SCC1CCCO1", "note": "(stereo not drawn)", "Potency": "inconclusive: 14.6 µM [cytotoxic, partial curve]"},
      {"smiles": "Cc1ccccc1NC(=O)C1CCC(CNS(=O)(=O)c2ccc3c(c2)C(C)(C)C(=O)N3C)CC1", "note": "(stereo not drawn)", "Potency": "inactive"},
      {"smiles": "Cc1ccccc1-n1nc(CSc2nc3ccccc3[nH]2)c(-c2ccccc2)c1N", "Potency": "active: 18.4 µM"},
      {"smiles": "O=c1c2ccccc2n(Cc2ccc(Cl)cc2)c(=O)n1Cc1ccco1", "Potency": "inconclusive: 4.61 µM [cytotoxic, full curve, poor fit]"},
      {"smiles": "Cc1ccc(C(=O)Nc2ccccc2N2CCN(C(=O)C(C)C)CC2)cc1", "Potency": "inconclusive: 29.1 µM [cytotoxic, single point]"},
      {"smiles": "Cc1ccc(NS(=O)(=O)c2ccc(C)c(NC(=O)COc3ccccc3)c2)c(C)c1", "Potency": "active: 20.6 µM"},
      {"smiles": "O=C(CSc1ccc2nnc(-c3cccc(F)c3)n2n1)NCc1ccco1", "Potency": "active: 16.4 µM"},
      {"smiles": "COc1cc2c(c(OC)c1OC)-c1ccc(NC(=O)c3ccccc3)c(=O)cc1[C@@H](NC(C)=O)CC2", "Potency": "inactive"},
      {"smiles": "C=CCN(CC=C)S(=O)(=O)c1ccc(NC(=S)NC(=O)c2ccco2)cc1", "Potency": "active: 13 µM"},
      {"smiles": "COc1ccc(-c2ccnc3nc(-n4cccc4)nn23)cc1", "Potency": "inconclusive: 29.1 µM [cytotoxic, single point]"},
      {"smiles": "CCCn1c(SCC(=O)c2[nH]c(C)c(C(C)=O)c2C)n[nH]c1=O", "Potency": "inactive"},
      {"smiles": "COc1ccc(NC2CS(=O)(=O)CC2NCc2ccco2)cc1", "note": "(stereo not drawn)", "Potency": "inactive"},
      {"smiles": "COc1ccc(Nc2oc(-c3ccc(OC)cc3)nc2C#N)cc1", "Potency": "inactive"},
      {"smiles": "Cc1ccc(-n2ncc3c(N(C)Cc4ccccc4)ncnc32)cc1", "Potency": "inactive"},
      {"smiles": "COc1ccccc1N1CCN(C(=O)c2cc3c(s2)CCCCC3)CC1", "Potency": "inconclusive: 10.3 µM [cytotoxic, partial curve]"},
      {"smiles": "Cc1cc(S(=O)(=O)N(Cc2ccc(C(C)(C)C)cc2)Cc2cccs2)ccc1-n1cnnn1", "Potency": "inconclusive: 29.1 µM [cytotoxic, single point]"},
      {"smiles": "Nc1nc(SCc2ccc(Cl)cc2Cl)c2ncn(C3OC(CO)C(O)C3O)c2n1", "note": "(stereo not drawn)", "Potency": "inactive"},
      {"smiles": "CC(C)(C)OC(=O)N1CCc2onc(-c3ccccc3[N+](=O)[O-])c2C1=O", "Potency": "inactive"},
      {"smiles": "CC(C)NC(=O)NC(=O)COC(=O)/C=C/c1ccccc1[N+](=O)[O-]", "Potency": "inactive"},
      {"smiles": "CCCc1cc2c(cc1NC(=O)c1ccccc1F)OCO2", "Potency": "inactive"},
      {"smiles": "S=C(NCc1ccc2[nH]c3c(c2c1)CCCC3)Nc1ccccc1Cl", "Potency": "inconclusive: 23.1 µM [cytotoxic, partial curve, poor fit]"},
      {"smiles": "CC(=O)Nc1ccccc1OCc1cc(=O)n2c3c(sc2n1)CCCC3", "Potency": "inconclusive: 5.17 µM [rising, full curve, poor fit]"},
      {"smiles": "COc1ccc2[nH]c(=O)c(CN(C(=O)c3cccc(Cl)c3)c3ccccc3OC)cc2c1", "Potency": "inactive"},
      {"smiles": "CC1(C)C2CCC(CN=C(N)CSS(=O)(=O)O)C1C2", "note": "(stereo not drawn)", "Potency": "inconclusive: 29.1 µM [cytotoxic, partial curve, poor fit]"},
      {"smiles": "O=C1NC(=O)C2(Br)Nc3ccc(Br)cc3C(=O)C2N1", "note": "(stereo not drawn)", "Potency": "inactive"},
      {"smiles": "Cc1ccc(S(=O)(=O)N2[C@@H](c3ccc(Cl)cc3)C(C(=O)O)=CC[C@H]2c2ccc3c(c2)OCO3)cc1", "Potency": "inconclusive: 25.9 µM [rising, single point]"},
      {"smiles": "CCOC(=O)c1ccccc1NC(=O)c1ccccc1N(C)S(C)(=O)=O", "Potency": "active: 18.4 µM"},
      {"smiles": "Cc1ccc(S(=O)(=O)N2CCCOC2CNC(=O)C(=O)NCCC2=CCCCC2)cc1", "note": "(stereo not drawn)", "Potency": "active: 2.91 µM"},
      {"smiles": "CCOC(=O)Nc1cc(C)c(Cl)cc1OC", "Potency": "inconclusive: 11.6 µM [rising, partial curve, poor fit]"},
      {"smiles": "O=S(=O)(NN1CCOCC1)c1ccc(Br)cc1", "Potency": "inconclusive: 32.6 µM [rising, single point]"},
      {"smiles": "Cn1c(/C(C#N)=C/Nc2ccccn2)nc2ccccc21", "Potency": "inconclusive: 14.6 µM [cytotoxic, partial curve]"},
      {"smiles": "Cc1ccc(Sc2c(C)nn(C(=O)COc3ccccc3)c2C)cc1", "Potency": "inactive"},
      {"smiles": "CCOC(=O)c1sc(-c2ccc(C)cc2)c(C#N)c1C", "Potency": "inconclusive: 23.1 µM [cytotoxic, partial curve, poor fit]"},
      {"smiles": "CCOc1ccc(C(C)=O)cc1COc1cccnc1[N+](=O)[O-]", "Potency": "active: 11.6 µM"},
      {"smiles": "CCN(CC)C(=O)C1CCN(Cc2ccc(Br)cc2)CC1", "Potency": "active: 18.4 µM"},
      {"smiles": "CC1CCCCC1N1CN=C(Nc2nc3ccccc3s2)NC1", "note": "(stereo not drawn)", "Potency": "active: 18.4 µM"},
      {"smiles": "Cc1ccc(S(=O)(=O)N2CCN(S(=O)(=O)c3ccc(C)cc3)C2)cc1", "Potency": "inconclusive: 32.6 µM [cytotoxic, partial curve, poor fit]"},
      {"smiles": "O=C(/C=C/c1ccccc1Cl)NCCc1ccccc1", "Potency": "active: 16.4 µM"},
      {"smiles": "Cc1ccc(C(=O)C(C)OC(=O)Cc2n[nH]c(=O)c3ccccc23)cc1", "note": "(stereo not drawn)", "Potency": "inconclusive: 23.1 µM [cytotoxic, single point]"},
      {"smiles": "O=C(NC1CCc2ccccc21)c1cc(COc2ccc(F)cc2F)on1", "note": "(stereo not drawn)", "Potency": "inconclusive: 18.4 µM [cytotoxic, single point]"},
      {"smiles": "O=C(CN1CCN(Cc2ccc(F)cc2Cl)S1(=O)=O)Nc1ccc(F)cc1", "Potency": "inactive"},
      {"smiles": "CCC(NS(=O)(=O)c1ccc(OC)cc1)C(=O)NCCC1=CCCCC1", "note": "(stereo not drawn)", "Potency": "inconclusive: 5.17 µM [cytotoxic, full curve]"},
      {"smiles": "Cc1cc(C)n2c(NC3CCCCC3)c(-c3cccnc3)nc2n1", "Potency": "inconclusive: 4.11 µM [cytotoxic, full curve]"},
      {"smiles": "C/C(=C\\C(=O)c1ccccc1)Nc1ccc2c(c1)OCO2", "Potency": "inconclusive: 29.1 µM [cytotoxic, single point]"},
      {"smiles": "CSc1cccc(NC(=O)c2c(Cl)cnn2C)c1", "Potency": "inconclusive: 20.6 µM [cytotoxic, single point]"},
      {"smiles": "Cc1ccc(OCC(=O)Nc2cc(S(=O)(=O)N3CCOCC3)ccc2N2CCCC2)cc1", "Potency": "inactive"},
      {"smiles": "CCOc1ccc(NC(=O)Cn2c(=O)oc3cc(S(=O)(=O)NC4CCCC4)ccc32)cc1", "Potency": "inactive"}
    ]}
  ]
}
